The list is a part of this screen's results and no random one: it gathers tests that were run many times, whatever their T/C, doses with no T/C, and many T/C values between a quarter and a half above the control. Further doses and runs are listed elsewhere. T/C gives the treated animals as a percentage of the vehicle group. Schedules are NCI's codes, taken here to give the interval after Q, in days (D) or hours (H), and the number of doses after X. Some doses have a count of surviving animals in place of a T/C: the source files T/C as zero there, which appears to mark a toxic dose or a test without result, not a measured value. Counts of survivors are from the toxicity check (mostly the fifth day) where no day follows; animals may have died later. Some doses were run more than once; the results are listed from low to high.
Tested on: CD8F1 mice, subcutaneous mammary adenocarcinoma, T/C%
Experiment: NCI In Vivo Anticancer Drug Screen. Data for tumor model Mammary Adenocarcinoma CD8F1 (subcutaneous) in CD8F1
Details: higher T/C = larger tumour
Experimental: The antitumor activity of compounds was measured in mice bearing transplantable tumors. Survival or tumor size were measured and the results are expressed as the measurement made in the treated group (T) divided by the measurement made in the vehicle treated control group (C). The tumor model used in this assay is Mammary Adenocarcinoma CD8F1 (subcutaneous) in CD8F1

[1] = T/C endpoint: median tumor weight change, dose: 2000.0 mg/kg/injection, schedule: Q01DX001 (ip), vehicle: water

Question: Which survivor count (T/C endpoint: median tumor weight (est.), dose: 200.0 mg/kg/injection, schedule: Q01DX001 (ip), vehicle: saline) does the source give for [N-]=[N+]=CC(=O)CCC(N)C(=O)O (stereo not drawn) here?
Answer: 5 of 10 on day 33

Question: N#C[C@H](OC1OC(COC2OC(CO)C(O)C(O)C2O)C(O)C(O)C1O)c1ccccc1 (stereo partly drawn) was tested. Which T/C (T/C endpoint: median tumor weight (est.), dose: 800.0 mg/kg/injection, schedule: Q07DX005 (ip), vehicle: suspension in saline, evaluated on day 30) did it give?
Answer: 136 % of control

Question: Which survivor count (T/C endpoint: median tumor weight (est.), dose: 400.0 mg/kg/injection, schedule: Q07DX005 (ip), vehicle: suspension in saline) does the source give for Nc1nc(F)nc2c1ncn2C1OC(COP(=O)(O)O)C(O)C1O (stereo not drawn) here?
Answer: 1 of 10 on day 30

Question: OCCCN1CCCCC1CO (stereo not drawn) was tested. Which survivor count (T/C endpoint: median tumor weight change, dose: 2000.0 mg/kg/injection, schedule: Q01DX001 (ip), vehicle: saline) did it give?
Answer: 1 of 10 on day 31

Question: Which survivor count (T/C endpoint: median tumor weight change, dose: 13.3 mg/kg/injection, schedule: Q03HX003 (ip), vehicle: saline) does the source give for CC(O)CCC(=O)c1ccoc1 (stereo not drawn) here?
Answer: 5 of 10 on day 25

Question: What about the survivor count (T/C endpoint: median tumor weight change, dose: 26.6 mg/kg/injection, schedule: Q03HX003 (ip), vehicle: saline) of the same compound?
Answer: 0 of 10 on day 25

Question: NC(=O)c1csc(C2OC(CO)C(O)C2O)n1 (stereo not drawn) was tested. Which survivor count [1] did it give?
Answer: 4 of 10 on day 28

Question: For O=C1CN(CCN2CC(=O)N(CN3CCOCC3)C(=O)C2)CC(=O)N1CN1CCOCC1, which survivor count (T/C endpoint: median tumor weight change, dose: 500.0 mg/kg/injection, schedule: Q01DX001 (ip), vehicle: water) is on record?
Answer: 0 of 10 on day 29

Question: What about the survivor count (T/C endpoint: median tumor weight change, dose: 1000.0 mg/kg/injection, schedule: Q01DX001 (ip), vehicle: water) of the same compound?
Answer: 0 of 10 on day 29

Question: And the survivor count [1]?
Answer: 0 of 10 on day 29

Question: Which T/C (T/C endpoint: median tumor weight change, dose: 20.0 mg/kg/injection, schedule: Q01DX001 (ip), vehicle: distilled water + Tween-80, evaluated on day 34) does the source give for CC(=O)OC1C(O)C(C)OC(OC2C(OC(=O)C3CCC4C(C3)OC3(CC(OC(=O)/C=C/c5ccccc5)C(C)CO3)C43CO3)OC(C)C(O)C2OC(C)=O)C1O (stereo not drawn) here?
Answer: 128 % of control

Question: And the survivor count (T/C endpoint: median tumor weight change, dose: 160.0 mg/kg/injection, schedule: Q01DX001 (ip), vehicle: distilled water + Tween-80)?
Answer: 0 of 10 on day 34

Question: How did the survivor count (T/C endpoint: median tumor weight (est.), dose: 4.0 mg/kg/injection, schedule: Q07DX005 (ip), vehicle: saline) turn out when C1CC[N-]CC1.C1CC[N-]CC1.C1CC[N-]CC1.[Cl][Rh]([Cl])[Cl] was run?
Answer: 5 of 10

Question: What about the survivor count (T/C endpoint: median tumor weight (est.), dose: 128.0 mg/kg/injection, schedule: Q07DX005 (ip), vehicle: saline) of the same compound?
Answer: 6 of 10

Question: What about the survivor count (T/C endpoint: median tumor weight (est.), dose: 200.0 mg/kg/injection, schedule: Q07DX005 (ip), vehicle: saline) of the same compound?
Answer: 0 of 10 on day 30

Question: For C=CC(=O)NCNC(=O)C=C, which survivor count (T/C endpoint: median tumor weight change, dose: 500.0 mg/kg/injection, schedule: Q01DX001 (ip), vehicle: saline) is on record?
Answer: 0 of 10 on day 31

Question: What about the survivor count (T/C endpoint: median tumor weight change, dose: 500.0 mg/kg/injection, schedule: Q01DX001 (ip), vehicle: suspension in saline) of the same compound?
Answer: 0 of 9 on day 29

Question: What about the survivor count (T/C endpoint: median tumor weight change, dose: 574.0 mg/kg/injection, schedule: Q01DX001 (ip), vehicle: saline) of the same compound?
Answer: 0 of 10 on day 33

Question: And the survivor count (T/C endpoint: median tumor weight change, dose: 1000.0 mg/kg/injection, schedule: Q01DX001 (ip), vehicle: saline)?
Answer: 0 of 10 on day 31

Question: What about the survivor count (T/C endpoint: median tumor weight change, dose: 1000.0 mg/kg/injection, schedule: Q01DX001 (ip), vehicle: suspension in saline) of the same compound?
Answer: 0 of 9 on day 29

Question: What about the survivor count (T/C endpoint: median tumor weight change, dose: 2000.0 mg/kg/injection, schedule: Q01DX001 (ip), vehicle: suspension in saline) of the same compound?
Answer: 0 of 9 on day 29

Question: Which survivor count (T/C endpoint: median tumor weight change, dose: 1000.0 mg/kg/injection, schedule: Q01DX001 (ip), vehicle: saline with Tween-80) does the source give for O=[N+]([O-])c1ccc(N2CCOCC2)c2c1no[n+]2[O-] here?
Answer: 5 of 10 on day 29

Question: Which T/C (T/C endpoint: median tumor weight change, dose: 1.5 mg/kg/injection, schedule: Q01DX001 (ip), vehicle: saline with Tween-80, evaluated on day 31) does the source give for CC[C@@]1(O)C(=O)OCc2c1cc1n(c2=O)Cc2cc3ccccc3nc2-1 here?
Answer: 137 % of control

Question: COC1=CC(=O)C(OC)=C(OC)C1=O was tested. Which survivor count (T/C endpoint: median tumor weight (est.), dose: 200.0 mg/kg/injection, schedule: Q07DX005 (ip), vehicle: saline with Tween-80) did it give?
Answer: 6 of 10 on day 30

Question: Which survivor count (T/C endpoint: median tumor weight change, dose: 32.0 mg/kg/injection, schedule: Q01DX001 (ip), vehicle: saline) does the source give for O=C1C(NCC(O)CO)=C(N2CC2)C(=O)C(NCC(O)CO)=C1N1CC1 (stereo not drawn) here?
Answer: 1 of 10 on day 39

Question: And the survivor count (T/C endpoint: median tumor weight change, dose: 64.0 mg/kg/injection, schedule: Q01DX001 (ip), vehicle: saline)?
Answer: 0 of 10 on day 39

Question: And the survivor count (T/C endpoint: median tumor weight change, dose: 64.0 mg/kg/injection, schedule: Q01DX001 (ip), vehicle: suspension in saline)?
Answer: 1 of 10 on day 28

Question: Which T/C (T/C endpoint: median tumor weight (est.), dose: 6.25 mg/kg/injection, schedule: Q07DX005 (ip), vehicle: saline, evaluated on day 35) does the source give for CC1(C)N=C(N)N=C(N)N1c1ccc(F)c(C(F)(F)F)c1 here?
Answer: 134 % of control

Question: And the survivor count (T/C endpoint: median tumor weight (est.), dose: 100.0 mg/kg/injection, schedule: Q07DX005 (ip), vehicle: saline)?
Answer: 2 of 10

Question: Which results are given for COc1cc2c(cc1O)N=C[C@@H]1CCC(O)N1C2=O (mixture of isomers)?
Answer: T/C (T/C endpoint: median tumor weight (est.), dose: 1.0 mg/kg/injection, schedule: Q07DX005 (ip), vehicle: saline, evaluated on day 30): 135 % of control; survivor count (T/C endpoint: median tumor weight (est.), dose: 16.0 mg/kg/injection, schedule: Q07DX005 (ip), vehicle: saline): 6 of 10 on day 30; survivor count (T/C endpoint: median tumor weight (est.), dose: 32.0 mg/kg/injection, schedule: Q07DX005 (ip), vehicle: saline): 0 of 10 on day 30

Question: CNC(=O)/C=C/C1=CN2C(=O)c3ccc(C)c(O)c3NC(OC)C2C1 (stereo not drawn) was tested. Which survivor count (T/C endpoint: median tumor weight change, dose: 0.15 mg/kg/injection, schedule: Q01DX001 (ip), vehicle: suspension in saline) did it give?
Answer: 1 of 10 on day 30

Question: And the survivor count (T/C endpoint: median tumor weight change, dose: 0.31 mg/kg/injection, schedule: Q01DX001 (ip), vehicle: suspension in saline)?
Answer: 0 of 10 on day 30

Question: What about the survivor count (T/C endpoint: median tumor weight change, dose: 0.62 mg/kg/injection, schedule: Q01DX001 (ip), vehicle: suspension in saline) of the same compound?
Answer: 0 of 10 on day 30 and 0 of 10 on day 39

Question: What about the survivor count (T/C endpoint: median tumor weight change, dose: 1.25 mg/kg/injection, schedule: Q01DX001 (ip), vehicle: saline) of the same compound?
Answer: 3 of 10 on day 36

Question: And the survivor count (T/C endpoint: median tumor weight change, dose: 1.25 mg/kg/injection, schedule: Q01DX001 (ip), vehicle: suspension in saline)?
Answer: 0 of 10 on day 39

Question: And the survivor count (T/C endpoint: median tumor weight change, dose: 2.5 mg/kg/injection, schedule: Q01DX001 (ip), vehicle: saline)?
Answer: 0 of 10 on day 36

Question: What about the survivor count (T/C endpoint: median tumor weight change, dose: 2.5 mg/kg/injection, schedule: Q01DX001 (ip), vehicle: suspension in saline) of the same compound?
Answer: 0 of 10 on day 39

Question: And the survivor count (T/C endpoint: median tumor weight change, dose: 5.0 mg/kg/injection, schedule: Q01DX001 (ip), vehicle: saline)?
Answer: 0 of 10 on day 36

Question: And the survivor count (T/C endpoint: median tumor weight change, dose: 5.0 mg/kg/injection, schedule: Q01DX001 (ip), vehicle: suspension in saline)?
Answer: 0 of 10 on day 39

Question: For CN=C(N)N/N=C(\c1ccccc1)c1ccc(Br)cc1, which survivor count (T/C endpoint: median tumor weight change, dose: 125.0 mg/kg/injection, schedule: Q01DX001 (ip), vehicle: saline with Tween-80) is on record?
Answer: 0 of 10 on day 28

Question: What about the survivor count (T/C endpoint: median tumor weight change, dose: 250.0 mg/kg/injection, schedule: Q01DX001 (ip), vehicle: saline with Tween-80) of the same compound?
Answer: 0 of 10 on day 28

Question: With CN1CCN(c2ccc([N+](=O)[O-])c3no[n+]([O-])c23)CC1 as the compound, how does the survivor count (T/C endpoint: median tumor weight (est.), dose: 40.0 mg/kg/injection, schedule: Q07DX005 (ip), vehicle: saline with Tween-80) read?
Answer: 6 of 10 on day 30

Question: What about the survivor count (T/C endpoint: median tumor weight (est.), dose: 80.0 mg/kg/injection, schedule: Q07DX005 (ip), vehicle: saline with Tween-80) of the same compound?
Answer: 0 of 10 on day 30

Question: What about the survivor count (T/C endpoint: median tumor weight (est.), dose: 160.0 mg/kg/injection, schedule: Q07DX005 (ip), vehicle: saline with Tween-80) of the same compound?
Answer: 0 of 10 on day 30

Question: CS(=O)(=O)OCCCCOS(C)(=O)=O was tested. Which survivor count (T/C endpoint: median tumor weight (est.), dose: 200.0 mg/kg/injection, schedule: Q07DX005 (ip), vehicle: Klucel (hydroxypropylcellulose) (HPC)) did it give?
Answer: 0 of 10 on day 30

Question: For C=C(C)[C@]12CC(C)C34OC(/C=C\C=C\CCCCCCCCC)(O[C@@H]1[C@@H]3[C@@H]1O[C@]1(CO)[C@@H](O)[C@]1(O)C(=O)C(C)=C[C@@H]41)O2 (stereo partly drawn), which survivor count (T/C endpoint: median tumor weight (est.), dose: 3.0 mg/kg/injection, schedule: Q07DX002 (ip), vehicle: saline + alcohol) is on record?
Answer: 6 of 10

Question: What about the survivor count (T/C endpoint: median tumor weight (est.), dose: 6.0 mg/kg/injection, schedule: Q07DX002 (ip), vehicle: saline + alcohol) of the same compound?
Answer: 1 of 10

Question: What about the survivor count (T/C endpoint: median tumor weight (est.), dose: 12.0 mg/kg/injection, schedule: Q07DX002 (ip), vehicle: saline + alcohol) of the same compound?
Answer: 4 of 10

Question: With CC(C)=CCNc1ncnc2c1ncn2C1OC(CO)C(O)C1O (stereo not drawn) as the compound, how does the survivor count (T/C endpoint: median tumor weight (est.), dose: 400.0 mg/kg/injection, schedule: Q07DX005 (ip), vehicle: saline with Tween-80) read?
Answer: 1 of 10 on day 30

Question: CCCCOCN(COCCCC)C(C)Cc1ccccc1 (stereo not drawn) was tested. Which T/C (T/C endpoint: median tumor weight change, dose: 500.0 mg/kg/injection, schedule: Q01DX001 (ip), vehicle: saline with Tween-80, evaluated on day 31) did it give?
Answer: 130 % of control

Question: And the survivor count (T/C endpoint: median tumor weight change, dose: 2000.0 mg/kg/injection, schedule: Q01DX001 (ip), vehicle: saline with Tween-80)?
Answer: 0 of 10 on day 26

From PubChem BioAssay AID220 (DTP/NCI, 2004)
